Test results as given in patent US20010009926A1, “Mesozeaxanthin formulations for treatment of retinal disorders” (THE HOWARD FOUNDATION, priority 1993, published 2001).

System: human retinas
Assay: HPLC analysis of carotenoids in human retinas from AMD and non-AMD (control) eyes
Details: for Concentration, AMD Eyes, Annulus Inner / Concentration, AMD Eyes, Annulus Medial / Concentration, AMD Eyes, Annulus Outer / Loss/Gain in AMD Eyes (%), Annulus Inner / Loss/Gain in AMD Eyes (%), Annulus Medial / Loss/Gain in AMD Eyes (%), Annulus Outer / Concentration, Control Eyes, Annulus Inner / Concentration, Control Eyes, Annulus Medial / Concentration, Control Eyes, Annulus Outer: Table 4; for Loss/Gain in AMD Eyes (%), Annulus Inner / Loss/Gain in AMD Eyes (%), Annulus Medial / Loss/Gain in AMD Eyes (%), Annulus Outer / Loss/Gain in AMD Eyes (%), Annulus / reduction in AMD eyes: AMD versus control eyes; for Concentration, Control Eyes, Annulus Inner / Concentration, Control Eyes, Annulus Medial / Concentration, Control Eyes, Annulus Outer / Concentration, Control Eyes, Annulus: non-AMD control eyes; for Concentration, AMD Eyes, Annulus / Loss/Gain in AMD Eyes (%), Annulus / Concentration, Control Eyes, Annulus: Table 3
Description: For each normal and AMD eye, the neural retina was cut into a central disk and 2 concentric annuli using trephines of 3, 11 and 21 mm. to extract the carotenoids, the tissues were ground in ethanol/water (1:1) to which 10 ng lutein monomethyl ester was added as an internal standard. Separation and quantitation of zeaxanthin and lutein fractions was by reversed-phase HPLC using Phenomenex column. Carbamate derivatives of individual stereoisomers of both zeaxanthin and lutein were separated on a normal-phase HPLC column, using the methods of Ruttiman et al (1983) and […] et al. (1995), the results being plotted in FIG. 2. Retinas were first cut be circular punches into an inner disc (inner annulus) of 3 mm diameter which encompassed most of the macular retina, a medial reing (medial annulus) encompassing the retinal tissues between 3 and 11 mm in diameter, and an outer ring (outer annulus) encompassing the retinal tissues between 11 and 22 mm in diameter.

| Molecule | Concentration, AMD Eyes, Annulus Inner (inner annulus) | Concentration, AMD Eyes, Annulus Medial (medial annulus) | Concentration, AMD Eyes, Annulus Outer (outer annulus) | Loss/Gain in AMD Eyes (%), Annulus Inner (inner annulus) | Loss/Gain in AMD Eyes (%), Annulus Medial (medial annulus) | Loss/Gain in AMD Eyes (%), Annulus Outer (outer annulus) | Concentration, Control Eyes, Annulus Inner (inner annulus) | Concentration, Control Eyes, Annulus Medial (medial annulus) | Concentration, Control Eyes, Annulus Outer (outer annulus) | Concentration, AMD Eyes, Annulus (inner annulus) | Concentration, AMD Eyes, Annulus (medial annulus) | Concentration, AMD Eyes, Annulus (outer annulus) | Loss/Gain in AMD Eyes (%), Annulus (inner annulus) | Loss/Gain in AMD Eyes (%), Annulus (medial annulus) | Loss/Gain in AMD Eyes (%), Annulus (outer annulus) | Concentration, Control Eyes, Annulus (inner annulus) | Concentration, Control Eyes, Annulus (medial annulus) | Concentration, Control Eyes, Annulus (outer annulus) | other results |
| --- | --- | --- | --- | --- | --- | --- | --- | --- | --- | --- | --- | --- | --- | --- | --- | --- | --- | --- | --- |
| CC1=C(/C=C/C(C)=C/C=C/C(C)=C/C=C/C=C(C)/C=C/C=C(C)/C=C/C2=C(C)C[C@@H](O)CC2(C)C)C(C)(C)C[C@H](O)C1 [R,R′-Zeaxanthin, 3R,3′R-zeaxanthin] | 1.399 picomoles zeaxanthin per square millimeter of retina | 0.087 picomoles zeaxanthin per square millimeter of retina | 0.025 picomoles zeaxanthin per square millimeter of retina | −19% | −7% | +25% | 1.730 picomoles zeaxanthin per square millimeter of retina | 0.094 picomoles zeaxanthin per square millimeter of retina | 0.02 picomoles zeaxanthin per square millimeter of retina | – | – | – | – | – | – | – | – | – | – |
| CC1=C[C@H](O)CC(C)(C)[C@H]1/C=C/C(C)=C/C=C/C(C)=C/C=C/C=C(C)/C=C/C=C(C)/C=C/C1=C(C)C[C@@H](O)CC1(C)C [lutein] | – | – | – | – | – | – | – | – | – | 1.462 picomoles of compound per square millimeter of retina | 0.127 picomoles of compound per square millimeter of retina | 0.045 picomoles of compound per square millimeter of retina | −37% | −32% | −22% | 2.313 picomoles of compound per square millimeter of retina | 0.187 picomoles of compound per square millimeter of retina | 0.058 picomoles of compound per square millimeter of retina | – |
| CC1=C(/C=C/C(C)=C/C=C/C(C)=C/C=C/C=C(C)/C=C/C=C(C)/C=C/C2=C(C)C[C@H](O)CC2(C)C)C(C)(C)C[C@H](O)C1 [Meso-Zeaxanthin, 3R,3′S-(meso)-zeaxanthin] | 0.993 picomoles zeaxanthin per square millimeter of retina | 0.032 picomoles zeaxanthin per square millimeter of retina | 0.005 picomoles zeaxanthin per square millimeter of retina | −30% | −14% | −17% | 1.399 picomoles zeaxanthin per square millimeter of retina | 0.037 picomoles zeaxanthin per square millimeter of retina | 0.006 picomoles zeaxanthin per square millimeter of retina | – | – | – | – | – | – | – | – | – | reduction in AMD eyes (inner annulus): 30%; reduction in AMD eyes (medial annulus): 14%; reduction in AMD eyes (outer annulus): 17% |
| zeaxanthin [Total Zeaxanthin] | – | – | – | – | – | – | – | – | – | 2.055 picomoles of compound per square millimeter of retina | 0.097 picomoles of compound per square millimeter of retina | 0.022 picomoles of compound per square millimeter of retina | −40% | −25% | −19% | 3.451 picomoles of compound per square millimeter of retina | 0.130 picomoles of compound per square millimeter of retina | 0.027 picomoles of compound per square millimeter of retina | – |
